Measured values published in the supplement of paper PMC4683952.
This is one part of the list. No rule for the calls is given here. Repeats in this data set agree poorly, so a single value says little.

Each molecule was assayed on Lgr5 (MarsCy1-Lgr5-EGFP, U2OS) (assay: cell-surface Lgr5 expression (SCi1 fluorescence, background-subtracted) relative to WT DMSO (fold of DMSO control); higher = more Lgr5 at the plasma membrane). Details: U2OS MarsCy1-Lgr5-EGFP stable; treatment time: overnight; library: Kinase Gold; 20 µM.
Procedure: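 U2OS cells stably expressing MarsCy1-Lgr5-EGFP in 384-well plates were incubated overnight with single-dose compounds. Cell-surface Lgr5 was stained with SCi1 and scanned at 700 nm on a LI-COR Odyssey. Intensity was background-subtracted (parental U2OS) and expressed relative to WT DMSO wells.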

cell-surface Lgr5 expression, inactive:
Cc1c2cc(O)c(=O)cc-2oc2cc(O)c(O)cc12 0.807
COc1ccc2oc(=O)c(C(=O)NNC(=O)c3ccncc3)cc2c1 0.832
Cc1cccc(Nc2nc(NCCO)nc(N3CCOCC3)n2)c1 0.761
Cc1ccc(NC(=S)NC(=O)c2ccc(Cl)cc2Cl)nc1 0.948
O=C(CC(=O)c1ccccc1)Nc1ccccn1 0.899
O=C(NC(=S)NCc1ccccc1)c1cccnc1 0.858
N#Cc1c(-c2ccc3c(c2)OCO3)cc(-c2ccccc2)nc1N 0.99
Cc1ccc2cccc(NC(=S)NC(=O)c3ccn(C)n3)c2n1 0.902
CC1(C(=O)C[n+]2cccc(C(N)=O)c2)CCC(=O)O1 (stereo not drawn) 0.905
O=C(NCc1ccc2c(c1)OCO2)C(=O)NCc1ccco1 0.537
COc1ccc(OC)c(/C=C/C(=O)c2ccc3c(c2)OCCO3)c1 0.535
O=C1N=C(N2CCOCC2)S/C1=C1\C(=O)Nc2ccccc21 0.885
O=C(Nc1ccccc1O)c1ccccn1 0.786
N=c1oc2cc(O)ccc2cc1C(=O)Nc1ccccn1 0.652
CC(=O)c1ccc(NC(=S)NC(=O)/C=C/c2ccco2)cc1 0.714
O=C(Nc1cccc(NC(=O)c2ccco2)c1)c1ccc(F)cc1 0.712
CC(=O)Nc1ccc(C(=O)NNC(=O)c2cccs2)cc1 0.87
Cc1cccc(C)c1NC(=O)COC(=O)c1nonc1N 0.808

Looked up by structure from above (2):
cell-surface Lgr5 expression, inactive:
Cc1cccc(Nc2nc(NCCO)nc(N3CCOCC3)n2)c1 0.761
CC(=O)Nc1ccc(C(=O)NNC(=O)c2cccs2)cc1 0.87
